In paper PMC11423161:
Results are given in words; binding and its absence hold for the method and conditions named. In cells and extracts the contact can be indirect. A result given as binding can be weak or reduced; the word gives no strength.

Sequences of proteins named here, by UniProt entry; tags and fusion partners are left off. A change or cut given only in a name is not applied to a line headed by its entry.
UniProt P63331: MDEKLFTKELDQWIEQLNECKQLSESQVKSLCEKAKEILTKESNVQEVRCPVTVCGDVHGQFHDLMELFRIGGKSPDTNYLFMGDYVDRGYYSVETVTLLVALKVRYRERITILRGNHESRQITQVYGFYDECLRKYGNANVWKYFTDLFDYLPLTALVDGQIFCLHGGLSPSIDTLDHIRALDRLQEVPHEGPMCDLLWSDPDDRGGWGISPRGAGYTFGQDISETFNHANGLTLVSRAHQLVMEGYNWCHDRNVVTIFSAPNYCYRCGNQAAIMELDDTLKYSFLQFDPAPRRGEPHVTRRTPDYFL
UniProt D3ZMG0: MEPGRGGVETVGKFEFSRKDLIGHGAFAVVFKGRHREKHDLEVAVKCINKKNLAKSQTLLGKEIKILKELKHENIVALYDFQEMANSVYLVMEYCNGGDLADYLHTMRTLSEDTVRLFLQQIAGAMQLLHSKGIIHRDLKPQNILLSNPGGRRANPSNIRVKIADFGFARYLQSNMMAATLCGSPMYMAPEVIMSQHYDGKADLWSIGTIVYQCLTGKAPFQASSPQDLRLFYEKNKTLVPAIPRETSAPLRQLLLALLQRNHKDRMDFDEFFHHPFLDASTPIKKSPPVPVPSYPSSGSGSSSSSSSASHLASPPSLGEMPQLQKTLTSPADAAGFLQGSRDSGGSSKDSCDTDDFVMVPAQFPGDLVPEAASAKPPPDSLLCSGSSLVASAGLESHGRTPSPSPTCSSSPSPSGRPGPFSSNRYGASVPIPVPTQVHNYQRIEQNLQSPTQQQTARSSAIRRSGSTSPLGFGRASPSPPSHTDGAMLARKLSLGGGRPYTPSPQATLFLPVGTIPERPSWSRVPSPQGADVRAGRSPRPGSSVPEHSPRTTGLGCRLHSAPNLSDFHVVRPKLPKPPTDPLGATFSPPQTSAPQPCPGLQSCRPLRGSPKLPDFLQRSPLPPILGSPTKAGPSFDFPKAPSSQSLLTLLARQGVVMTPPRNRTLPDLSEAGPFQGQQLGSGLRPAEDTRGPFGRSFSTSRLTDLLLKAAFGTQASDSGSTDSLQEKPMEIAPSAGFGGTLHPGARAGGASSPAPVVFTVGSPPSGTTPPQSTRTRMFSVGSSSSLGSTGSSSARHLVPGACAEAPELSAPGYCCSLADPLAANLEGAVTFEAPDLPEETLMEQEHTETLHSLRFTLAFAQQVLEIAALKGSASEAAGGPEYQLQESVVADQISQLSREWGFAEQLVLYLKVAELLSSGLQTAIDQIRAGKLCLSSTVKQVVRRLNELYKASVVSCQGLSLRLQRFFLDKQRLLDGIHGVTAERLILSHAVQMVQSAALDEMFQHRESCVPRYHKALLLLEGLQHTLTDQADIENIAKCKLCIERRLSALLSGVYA

Target: catalytic subunit of protein phosphatase 2A (PP2Ac) (rat (endogenous in BMMs of SD rats)) (UniProt P63331)
Assay: co-IP; endogenous proteins in lysates of rat BMMs, with or without RANKL for 16 h and with or without PP2Ac siRNA; 1 µg primary antibody and Protein A/G magnetic beads, 4 °C overnight; co-precipitated ULK1 detected by western blot

- binding: binds
Substance: ULK1 (from UniProt D3ZMG0) (enzyme)
